Laboratory results from the supplement of paper PMC8728848.
The other results are listed elsewhere or left out.

How the values were obtained:
Test in all cases: glycan array binding signal (z-score within array); higher = stronger binding
Details in all cases: glycan notation: IUPAC condensed, linker removed
Fuc(a1-2)Gal = target: Fuc(a1-2)Gal
How it was run: (§1)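 The binding signal is a Z-score computed within each array and averaged over linkers. Arrays of the same protein sequence at different concentrations or buffers were also averaged together. Data originate from 3228 arrays in the Consortium for Functional Glycomics database, kept only where the protein sequence was available.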

Fuc(a1-2)Gal(b1-3)GalNAc = target: Fuc(a1-2)Gal(b1-3)GalNAc
How it was run: as §1

[1] = target: Fuc(a1-2)Gal(b1-3)GalNAc(a1-3)[Fuc(a1-2)]Gal(b1-4)Glc
How it was run: as §1

[2] = target: Fuc(a1-2)Gal(b1-3)GalNAc(a1-3)[Fuc(a1-2)]Gal(b1-4)GlcNAc
How it was run: as §1

[3] = target: Fuc(a1-2)Gal(b1-3)GalNAc(b1-3)Gal
How it was run: as §1

[4] = target: Fuc(a1-2)Gal(b1-3)GalNAc(b1-3)Gal(a1-4)Gal(b1-4)Glc
How it was run: as §1

[5] = target: Fuc(a1-2)Gal(b1-3)GalNAc(b1-4)[Neu5Ac(a2-3)]Gal(b1-4)Glc
How it was run: as §1

Fuc(a1-2)Gal(b1-3)GlcNAc = target: Fuc(a1-2)Gal(b1-3)GlcNAc
How it was run: as §1

[6] = target: Fuc(a1-2)Gal(b1-3)GlcNAc(b1-2)Man(a1-3)[Fuc(a1-2)Gal(b1-3)GlcNAc(b1-2)Man(a1-6)]Man(b1-4)GlcNAc(b1-4)GlcNAc
How it was run: as §1

[7] = target: Fuc(a1-2)Gal(b1-3)GlcNAc(b1-2)Man(a1-3)[Fuc(a1-2)Gal(b1-3)GlcNAc(b1-2)Man(a1-6)]Man(b1-4)GlcNAc(b1-4)[Fuc(a1-6)]GlcNAc
How it was run: as §1

[8] = target: Fuc(a1-2)Gal(b1-3)GlcNAc(b1-3)Gal(b1-4)Glc
How it was run: as §1

[9] = target: Fuc(a1-2)Gal(b1-3)GlcNAc(b1-3)GalNAc
How it was run: as §1

[10] = target: Fuc(a1-2)Gal(b1-3)GlcNAc(b1-3)[Fuc(a1-3)[Gal(b1-4)]GlcNAc(b1-6)]Gal(b1-4)Glc
How it was run: as §1

[11] = target: Fuc(a1-2)Gal(b1-3)GlcNAc(b1-3)[Gal(b1-4)GlcNAc(b1-6)]Gal(b1-4)Glc
How it was run: as §1

[12] = target: Fuc(a1-2)Gal(b1-3)GlcNAc(b1-3)[Neu5Ac(a2-6)Gal(b1-4)GlcNAc(b1-6)]Gal(b1-4)Glc
How it was run: as §1

[13] = target: Fuc(a1-2)Gal(b1-3)[Fuc(a1-4)]GlcNAc
How it was run: as §1

[14] = target: Fuc(a1-2)Gal(b1-3)[Fuc(a1-4)]GlcNAc(b1-2)Man(a1-3)[Fuc(a1-2)Gal(b1-3)[Fuc(a1-4)]GlcNAc(b1-2)Man(a1-6)]Man(b1-4)GlcNAc(b1-4)GlcNAc
How it was run: as §1

[15] = target: Fuc(a1-2)Gal(b1-3)[Fuc(a1-4)]GlcNAc(b1-3)[Fuc(a1-3)[Gal(b1-4)]GlcNAc(b1-6)]Gal(b1-4)Glc
How it was run: as §1

[16] = target: Fuc(a1-2)Gal(b1-3)[Fuc(a1-4)]GlcNAc(b1-3)[Gal(b1-4)GlcNAc(b1-6)]Gal(b1-4)Glc
How it was run: as §1

Fuc(a1-2)Gal(b1-4)Glc = target: Fuc(a1-2)Gal(b1-4)Glc
How it was run: as §1

Fuc(a1-2)Gal(b1-4)Glc6S = target: Fuc(a1-2)Gal(b1-4)Glc6S
How it was run: as §1

Fuc(a1-2)Gal(b1-4)GlcNAc = target: Fuc(a1-2)Gal(b1-4)GlcNAc
How it was run: as §1

[17] = target: Fuc(a1-2)Gal(b1-4)GlcNAc(b1-2)Man(a1-3)[Fuc(a1-2)Gal(b1-4)GlcNAc(b1-2)Man(a1-6)]Man(b1-4)GlcNAc(b1-4)GlcNAc
How it was run: as §1

[18] = target: Fuc(a1-2)Gal(b1-4)GlcNAc(b1-2)Man(a1-3)[Fuc(a1-2)Gal(b1-4)GlcNAc(b1-2)Man(a1-6)]Man(b1-4)GlcNAc(b1-4)[Fuc(a1-6)]GlcNAc
How it was run: as §1

[19] = target: Fuc(a1-2)Gal(b1-4)GlcNAc(b1-2)[Fuc(a1-2)Gal(b1-4)GlcNAc(b1-4)]Man(a1-3)[Fuc(a1-2)Gal(b1-4)GlcNAc(b1-2)Man(a1-6)]Man(b1-4)GlcNAc(b1-4)GlcNAc
How it was run: as §1

[20] = target: Fuc(a1-2)Gal(b1-4)GlcNAc(b1-3)Gal(b1-4)GlcNAc
How it was run: as §1

[21] = target: Fuc(a1-2)Gal(b1-4)GlcNAc(b1-3)Gal(b1-4)GlcNAc(b1-3)Gal(b1-4)GlcNAc
How it was run: as §1

[22] = target: Fuc(a1-2)Gal(b1-4)GlcNAc(b1-3)GalNAc
How it was run: as §1

[23] = target: Fuc(a1-2)Gal(b1-4)GlcNAc(b1-3)[Fuc(a1-2)Gal(b1-4)GlcNAc(b1-6)]GalNAc
How it was run: as §1

[24] = target: Fuc(a1-2)Gal(b1-4)GlcNAc6S
How it was run: as §1

B1: PGP3 (Chlamydia trachomatis), P0CE18 (protein)
chain: MGNSGFYLYNTQNCVFADNIKVGQMTEPLKDQQIILGTTSTPVAAKMTASDGISLTVSNNPSTNASITIGLDAEKAYQLILEKLGDQILGGIADTIVDSTVQDILDKITTDPSLGLLKAFNNFPITNKIQCNGLFTPRNIETLLGGTEIGKFTVTPKSSGSMFLVSADIIASRMEGGVVLALVREGDSKPYAISYGYSSGVPNLCSLRTRIINTGLTPTTYSLRVGGLESGVVWVNALSNGNDILGITNTSNVSFLEVIPQTNA
Fuc(a1-2)Gal
  glycan array binding signal (z-score): 2.47
Fuc(a1-2)Gal(b1-3)GalNAc
  glycan array binding signal (z-score): 0.021
[1]
  glycan array binding signal (z-score): 0.938
[2]
  glycan array binding signal (z-score): -0.089
[3]
  glycan array binding signal (z-score): -0.356
[4]
  glycan array binding signal (z-score): -0.815
[5]
  glycan array binding signal (z-score): -0.647
Fuc(a1-2)Gal(b1-3)GlcNAc
  glycan array binding signal (z-score): -0.002
[6]
  glycan array binding signal (z-score): 0.71
[7]
  glycan array binding signal (z-score): 0.775
[8]
  glycan array binding signal (z-score): -0.587
[9]
  glycan array binding signal (z-score): -0.514
[10]
  glycan array binding signal (z-score): 0.095
[11]
  glycan array binding signal (z-score): 0.289
[12]
  glycan array binding signal (z-score): -0.576
[13]
  glycan array binding signal (z-score): -0.264
[14]
  glycan array binding signal (z-score): -0.368
[15]
  glycan array binding signal (z-score): -0.443
[16]
  glycan array binding signal (z-score): 0.103
Fuc(a1-2)Gal(b1-4)Glc
  glycan array binding signal (z-score): -0.803
Fuc(a1-2)Gal(b1-4)Glc6S
  glycan array binding signal (z-score): -0.486
Fuc(a1-2)Gal(b1-4)GlcNAc
  glycan array binding signal (z-score): 1.28
[17]
  glycan array binding signal (z-score): -0.053
[18]
  glycan array binding signal (z-score): -0.158
[19]
  glycan array binding signal (z-score): 2.62
[20]
  glycan array binding signal (z-score): -0.699
[21]
  glycan array binding signal (z-score): -0.571
[22]
  glycan array binding signal (z-score): -0.835
[23]
  glycan array binding signal (z-score): 0.262
[24]
  glycan array binding signal (z-score): 0.516
